{"source": "patent US20090022803A1", "about": "“Oral Formulations For Delivery of Catecholic Butanes Including Ndga Compounds” (priority 2005, published 2009)", "type": "physicochemical", "protocol": "A 10 mL solution of M4N at a concentration of about 10 mg/mL in 40% BP-β-CD was made as follows. About 10 mL of the 40% HP-β-CD solution were added to a glass beaker containing a stir bar. The beaker was placed on a magnetic plate and the stir bar was set to stir at medium speed. About […] of M4N were slowly added to the 40% HP-β-CD in the center of the beaker with the aid of a spatula. The M4N/40% HP-β-CD mixture was stirred for 2 hr or until all M4N was uniformly suspended without any clumps being present. The M4N/40% HP-β-CD mixture was optionally heated at 80° C. for about 30 min. (or longer if a larger volume of solution was desired, for example, 1 hr at 80° C. for 100 mL of the M4N/HP-β-CD mixture), or longer as needed to ensure complete dissolution of M4N. […] The final M4N/40% HP-β-CD solution was stored at room temperature and was kept protected from light. This process may be scaled up or down to obtain the requisite volume or concentration of M4N. Formulations containing M4N in other cyclodextrin solutions may be similarly made, such as, for example, by substituting HP-β-CD in the process described above with other cyclodextrins. […]\nA 10 mL solution of M4N at a concentration of about 10 mg/mL in 50% HP-β-CD/0.5% HPMC was made as follows. About 10 mL of the 50% HP-β-CD/0.5% HPMC solution were added to a glass beaker containing a stir bar. The beaker was placed on a magnetic plate and the stir bar was set to stir at medium speed. About 100 mg of M4N were slowly added to the 50% HP-β-CD/0.5% HPMC in the center of the beaker with the aid of a spatula. The M4N/50% HP-β-CD/0.5% HPMC mixture was stirred for 24 hr or until all M4N was uniformly suspended without any clumps being present. The M4N/50% HP-β-CD/0.5% HPMC mixture was heated at about 90° C. for about 30 min. (or longer if a larger volume of solution was desired, for example, 1 hr at 90° C. for 500 mL of the M4N/50% HP-β-CD/0.5% HPMC mixture), or longer as needed to ensure complete dissolution of M4N. […] The final M4N/50% HP-β-CD/0.5% HPMC solution was stored at room temperature and was kept protected from light.\nA 10 mL solution of M4N at a concentration of about 20 mg/mL in 5% EC (w/v) (the “EC formulation”) was made as follows. About 10 mL of 5% EC formulation, made as described above, were added to a glass beaker containing a stir bar. The beaker was placed on a magnetic plate and the stir bar was set to stir at medium speed, and covered with a round Teflon® cover. About 200 mg of M4N were slowly added to the 5% EC formulation in the center of the beaker with the aid of a spatula to prevent M4N from sticking to the beaker wall. The M4N/EC mixture was stirred for 2 hr or until all M4N had dissolved or was uniformly suspended without any clumps being present. The M4N/EC mixture was heated at about 60° C. for about 30 min. (or longer if a larger volume of solution was desired, for example, 1 hr at 60° C. for 500 mL of the M4N/EC mixture), or longer as needed to ensure complete dissolution of M4N. […] The final M4N/EC solution was stored at room temperature and was kept protected from light.\nA 10 mL solution of M4N at a concentration of about 50 mg/mL in sesame oil was made as follows. About 10 mL of sesame oil were added to a glass beaker containing a stir bar. The beaker was placed on a magnetic plate and the stir bar was set to stir at medium speed. About 500 mg of M4N were slowly added to the sesame oil in the center of the beaker with the aid of a spatula to prevent M4N from sticking to the beaker wall. The M4N/sesame oil mixture was stirred for about 2 hr or until all M4N had dissolved or was uniformly suspended without any clump being present. The M4N/sesame oil mixture was heated at about 60° C. for about 30 min. (or longer if a larger volume of solution was desired, for example, 1 hr at 60° C. for 500 mL of the M4N/sesame oil mixture), or longer as need to ensure complete dissolution of M4N. […]", "note": "Where two headings read alike, the source gives them in different places. This continues a long series; more values of the same kind are listed elsewhere. For Dissolution After Cool Down in this document: key: N represents 'No'; Y represents 'Yes.'."}
{"smiles": "COc1ccc(C[C@@H](C)[C@@H](C)Cc2ccc(OC)c(OC)c2)cc1OC", "note": "[Formulation M4N, meso-1,4-bis(3,4-dimethoxyphenyl)-2,3-dimethylbutane]", "values": [{"measurement": "concentration up to which M4N was soluble", "result": "≤ 60000", "unit": "µg/mL"}, {"measurement": "solubility at room temperature", "result": "soluble"}, {"measurement": "solubility upon cooling", "result": "insoluble"}, {"measurement": "Dissolution After Rotation", "setting": "0.3% (v/v) Piperin, 49.8% (v/v) PEG 400, 49.8% (v/v) Tween ® 20, M4N 60 mg/mL", "result": "N"}, {"measurement": "Dissolution After Cool Down", "setting": "0.3% (v/v) Piperin, 49.8% (v/v) PEG 400, 49.8% (v/v) Tween ® 20, M4N 60 mg/mL, after heating at 55° C.", "result": "Suspension"}, {"measurement": "Dissolution After Heating", "setting": "0.3% (v/v) Piperin, 49.8% (v/v) PEG 400, 49.8% (v/v) Tween ® 20, M4N 60 mg/mL, heating at 55° C.", "result": "Y at 55 °C"}, {"measurement": "Dissolution After Rotation", "setting": "0.3% (w/v) Naringenin, 49.8%(v/v) PEG 400 49.8% (v/v) Tween ® 20, M4N 60 mg/mL", "result": "N"}, {"measurement": "Dissolution After Cool Down", "setting": "0.3% (w/v) Naringenin, 49.8%(v/v) PEG 400 49.8% (v/v) Tween ® 20, M4N 60 mg/mL, after heating at 50° C.", "result": "Creamy"}, {"measurement": "Dissolution After Heating", "setting": "0.3% (w/v) Naringenin, 49.8%(v/v) PEG 400 49.8% (v/v) Tween ® 20, M4N 60 mg/mL, heating at 50° C.", "result": "Y at 50 °C"}, {"measurement": "Dissolution After Rotation", "setting": "0.4% (v/v) Cinnamadehyde, 49.8%(v/v) PEG 400, 49.8% (v/v) Tween ® 20, M4N 60 mg/mL", "result": "N"}, {"measurement": "Dissolution After Cool Down", "setting": "0.4% (v/v) Cinnamadehyde, 49.8%(v/v) PEG 400, 49.8% (v/v) Tween ® 20, M4N 60 mg/mL, after heating at 60° C.", "result": "Y"}, {"measurement": "Dissolution After Heating", "setting": "0.4% (v/v) Cinnamadehyde, 49.8%(v/v) PEG 400, 49.8% (v/v) Tween ® 20, M4N 60 mg/mL, heating at 60° C.", "result": "Y at 60 °C"}, {"measurement": "Dissolution After Rotation", "setting": "0.4% (v/v) Cinnamaldehyde, 4.6% (v/v) Peppermint Oil, 47.5% (v/v) PEG 400, 47.5% (v/v) Tween ® 20, M4N 60 mg/mL", "result": "N"}, {"measurement": "Dissolution After Cool Down", "setting": "0.4% (v/v) Cinnamaldehyde, 4.6% (v/v) Peppermint Oil, 47.5% (v/v) PEG 400, 47.5% (v/v) Tween ® 20, M4N 60 mg/mL, after heating at 60° C.", "result": "Y"}, {"measurement": "Dissolution After Heating", "setting": "0.4% (v/v) Cinnamaldehyde, 4.6% (v/v) Peppermint Oil, 47.5% (v/v) PEG 400, 47.5% (v/v) Tween ® 20, M4N 60 mg/mL, heating at 60° C.", "result": "Y at 60 °C"}, {"measurement": "Dissolution After Rotation", "setting": "0.4% (v/v) Eugenol, 49.8% (v/v) Tween ® 20, 49.8% (v/v) PEG 400, M4N 60 mg/mL", "result": "N"}, {"measurement": "Dissolution After Cool Down", "setting": "0.4% (v/v) Eugenol, 49.8% (v/v) Tween ® 20, 49.8% (v/v) PEG 400, M4N 60 mg/mL, after heating at 50° C.", "result": "Y"}, {"measurement": "Dissolution After Heating", "setting": "0.4% (v/v) Eugenol, 49.8% (v/v) Tween ® 20, 49.8% (v/v) PEG 400, M4N 60 mg/mL, heating at 50° C.", "result": "Y at 50 °C"}, {"measurement": "Dissolution After Rotation", "setting": "0.4% (v/v) Naringin, 49.8% (v/v) PEG 400, 49.8% (v/v) Tween ® 20, M4N 60 mg/mL", "result": "N"}, {"measurement": "Dissolution After Cool Down", "setting": "0.4% (v/v) Naringin, 49.8% (v/v) PEG 400, 49.8% (v/v) Tween ® 20, M4N 60 mg/mL, after heating at 50° C.", "result": "Suspension"}, {"measurement": "Dissolution After Heating", "setting": "0.4% (v/v) Naringin, 49.8% (v/v) PEG 400, 49.8% (v/v) Tween ® 20, M4N 60 mg/mL, heating at 50° C.", "result": "Y at 50 °C"}, {"measurement": "Dissolution After Rotation", "setting": "0.4% (v/v) Naringin, 49.8% (v/v) PEG 400, 49.8% (v/v) Tween ® 20, M4N 120 mg/mL", "result": "N"}, {"measurement": "Dissolution After Cool Down", "setting": "0.4% (v/v) Naringin, 49.8% (v/v) PEG 400, 49.8% (v/v) Tween ® 20, M4N 120 mg/mL, after heating at 50° C.", "result": "Suspension"}, {"measurement": "Dissolution After Heating", "setting": "0.4% (v/v) Naringin, 49.8% (v/v) PEG 400, 49.8% (v/v) Tween ® 20, M4N 120 mg/mL, heating at 50° C.", "result": "Y at 50 °C"}, {"measurement": "Dissolution After Rotation", "setting": "0.4% (v/v) Naringin, 49.8% (v/v) PEG 400, 49.8% (v/v) Tween ® 20, M4N 200 mg/mL", "result": "N"}, {"measurement": "Dissolution After Cool Down", "setting": "0.4% (v/v) Naringin, 49.8% (v/v) PEG 400, 49.8% (v/v) Tween ® 20, M4N 200 mg/mL, after heating at 50° C.", "result": "Suspension"}, {"measurement": "Dissolution After Heating", "setting": "0.4% (v/v) Naringin, 49.8% (v/v) PEG 400, 49.8% (v/v) Tween ® 20, M4N 200 mg/mL, heating at 50° C.", "result": "Y at 50 °C"}, {"measurement": "Dissolution After Rotation", "setting": "0.4% (v/v) Naringin, 49.8% (v/v) PEG 400, 49.8% (v/v) Tween ® 20, M4N 300 mg/mL", "result": "N"}, {"measurement": "Dissolution After Cool Down", "setting": "0.4% (v/v) Naringin, 49.8% (v/v) PEG 400, 49.8% (v/v) Tween ® 20, M4N 300 mg/mL, after heating at 50° C.", "result": "Suspension"}, {"measurement": "Dissolution After Heating", "setting": "0.4% (v/v) Naringin, 49.8% (v/v) PEG 400, 49.8% (v/v) Tween ® 20, M4N 300 mg/mL, heating at 50° C.", "result": "Y at 50 °C"}, {"measurement": "Dissolution After Rotation", "setting": "3% (w/v)Glycerol Monostearate, 48.5% (v/v) PEG 400, 48.5% (v/v) Tween ® 20, M4N 60 mg/mL", "result": "N"}, {"measurement": "Dissolution After Cool Down", "setting": "3% (w/v)Glycerol Monostearate, 48.5% (v/v) PEG 400, 48.5% (v/v) Tween ® 20, M4N 60 mg/mL, after heating at 80° C.", "result": "Y"}, {"measurement": "Dissolution After Heating", "setting": "3% (w/v)Glycerol Monostearate, 48.5% (v/v) PEG 400, 48.5% (v/v) Tween ® 20, M4N 60 mg/mL, heating at 80° C.", "result": "Y at 80 °C"}, {"measurement": "Dissolution After Rotation", "setting": "5% (v/v) Peppermint Oil, 47.5% (v/v) Tween ® 20, 47.5% (v/v) PEG 400, M4N 60 mg/mL", "result": "N"}, {"measurement": "Dissolution After Cool Down", "setting": "5% (v/v) Peppermint Oil, 47.5% (v/v) Tween ® 20, 47.5% (v/v) PEG 400, M4N 60 mg/mL, after heating at 80° C.", "result": "Y"}, {"measurement": "Dissolution After Heating", "setting": "5% (v/v) Peppermint Oil, 47.5% (v/v) Tween ® 20, 47.5% (v/v) PEG 400, M4N 60 mg/mL, heating at 80° C.", "result": "Y at 80 °C"}, {"measurement": "Dissolution After Rotation", "setting": "10% TPGS (w/v), 50% PEG 400 (v/v), M4N 50 mg/ml", "result": "suspension"}, {"measurement": "Dissolution After Rotation", "setting": "25% (v/v) PEG 400, 25% (v/v) Tween ® 20, 50% (v/v) Glycerol Monooleate, M4N 60 mg/mL", "result": "N"}, {"measurement": "Dissolution After Heating", "setting": "25% (v/v) PEG 400, 25% (v/v) Tween ® 20, 50% (v/v) Glycerol Monooleate, M4N 60 mg/mL, heating at 50° C.", "result": "Y at 50 °C"}, {"measurement": "Dissolution After Rotation", "setting": "25%(w/v) Lecithin, 37.5% (v/v) PEG 400, 37.5% (v/v) Tween ® 20, M4N 60 mg/mL", "result": "N"}, {"measurement": "Dissolution After Cool Down", "setting": "25%(w/v) Lecithin, 37.5% (v/v) PEG 400, 37.5% (v/v) Tween ® 20, M4N 60 mg/mL, after heating at 50° C.", "result": "Y"}, {"measurement": "Dissolution After Heating", "setting": "25%(w/v) Lecithin, 37.5% (v/v) PEG 400, 37.5% (v/v) Tween ® 20, M4N 60 mg/mL, heating at 50° C.", "result": "Y at 50 °C"}, {"measurement": "Dissolution After Rotation", "setting": "30% (v/v) PEG 400, 30% (v/v) Tween ® 20, 40% (v/v) Glycerol Monooleate, M4N 60 mg/mL", "result": "N"}, {"measurement": "Dissolution After Heating", "setting": "30% (v/v) PEG 400, 30% (v/v) Tween ® 20, 40% (v/v) Glycerol Monooleate, M4N 60 mg/mL, heating at 50° C.", "result": "Y at 50 °C"}, {"measurement": "Dissolution After Heating", "setting": "40% Propylene Glycol (w/v), 10% Ethanol (v/v), M4N 10 mg/mL", "result": "N"}]}
